In patent publication US20140081011A1:
No constants are given. Whether binding was seen depends on the method and setting. In cells and extracts the contact can be indirect. Some binding calls cover weakened binding; strength is not graded here.

Target: recombinant human 4-1BB Receptor/Fc Chimera (R&D Systems) (human) (UniProt Q07011+P01857)
Test: co-immunoprecipitation; 4-1BB Receptor/Fc on Protein A magnetic beads, SDS-PAGE gel

binding: binds
Substance: recombinant 4-1BB Ligand (R&D Systems) (from UniProt P41273 71-254)
